Experimental data taken from article PMC10665946.
These are yes or no findings as the source states them, for the method shown. A result given as binding can be weak or reduced; the word gives no strength. Where a sequence is shown, tags or fusion partners need not be part of it.

Biological target: T1, hydrogen voltage-gated channel 1 (HVCN1) on CD18/HVCN1 CHO cells (UniProt Q96D96)
T1 sequence: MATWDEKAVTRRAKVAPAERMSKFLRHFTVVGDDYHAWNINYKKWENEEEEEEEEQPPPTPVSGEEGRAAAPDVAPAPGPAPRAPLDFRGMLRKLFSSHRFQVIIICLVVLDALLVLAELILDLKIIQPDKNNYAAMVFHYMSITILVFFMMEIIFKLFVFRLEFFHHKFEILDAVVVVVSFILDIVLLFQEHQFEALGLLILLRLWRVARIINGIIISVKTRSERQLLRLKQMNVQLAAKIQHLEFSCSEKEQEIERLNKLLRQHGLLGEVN
Test: flow cytometry on cells; purified CC8 LukAB titrated in PBS, added to 100,000 CHO cells, on ice 10 min; bound LukAB detected with anti-His PE; ΔMFI with PBS signal subtracted; only the binder purified

WT CC8 LukAB (leukocidin A/leukocidin B) heterodimer (S. aureus) (complex)
binding: binds
